Reference: patent US12419873B2, “Use of JAK inhibitors in preparation of drugs for treating JAK kinase-related diseases” (ZHUHAI UNITED LABORATORIES CO., LTD., priority 2020, dated 2025)
Entries after “also recorded” stand apart in the source; their conditions may differ. For at least one compound, name, drawing or mass did not settle the structure.

The chains behind the UniProt entries cited, without tags or fusion partners. Where a name states a change or a piece, a line headed by the entry shows the natural chain unless it says otherwise.
UniProt P29597: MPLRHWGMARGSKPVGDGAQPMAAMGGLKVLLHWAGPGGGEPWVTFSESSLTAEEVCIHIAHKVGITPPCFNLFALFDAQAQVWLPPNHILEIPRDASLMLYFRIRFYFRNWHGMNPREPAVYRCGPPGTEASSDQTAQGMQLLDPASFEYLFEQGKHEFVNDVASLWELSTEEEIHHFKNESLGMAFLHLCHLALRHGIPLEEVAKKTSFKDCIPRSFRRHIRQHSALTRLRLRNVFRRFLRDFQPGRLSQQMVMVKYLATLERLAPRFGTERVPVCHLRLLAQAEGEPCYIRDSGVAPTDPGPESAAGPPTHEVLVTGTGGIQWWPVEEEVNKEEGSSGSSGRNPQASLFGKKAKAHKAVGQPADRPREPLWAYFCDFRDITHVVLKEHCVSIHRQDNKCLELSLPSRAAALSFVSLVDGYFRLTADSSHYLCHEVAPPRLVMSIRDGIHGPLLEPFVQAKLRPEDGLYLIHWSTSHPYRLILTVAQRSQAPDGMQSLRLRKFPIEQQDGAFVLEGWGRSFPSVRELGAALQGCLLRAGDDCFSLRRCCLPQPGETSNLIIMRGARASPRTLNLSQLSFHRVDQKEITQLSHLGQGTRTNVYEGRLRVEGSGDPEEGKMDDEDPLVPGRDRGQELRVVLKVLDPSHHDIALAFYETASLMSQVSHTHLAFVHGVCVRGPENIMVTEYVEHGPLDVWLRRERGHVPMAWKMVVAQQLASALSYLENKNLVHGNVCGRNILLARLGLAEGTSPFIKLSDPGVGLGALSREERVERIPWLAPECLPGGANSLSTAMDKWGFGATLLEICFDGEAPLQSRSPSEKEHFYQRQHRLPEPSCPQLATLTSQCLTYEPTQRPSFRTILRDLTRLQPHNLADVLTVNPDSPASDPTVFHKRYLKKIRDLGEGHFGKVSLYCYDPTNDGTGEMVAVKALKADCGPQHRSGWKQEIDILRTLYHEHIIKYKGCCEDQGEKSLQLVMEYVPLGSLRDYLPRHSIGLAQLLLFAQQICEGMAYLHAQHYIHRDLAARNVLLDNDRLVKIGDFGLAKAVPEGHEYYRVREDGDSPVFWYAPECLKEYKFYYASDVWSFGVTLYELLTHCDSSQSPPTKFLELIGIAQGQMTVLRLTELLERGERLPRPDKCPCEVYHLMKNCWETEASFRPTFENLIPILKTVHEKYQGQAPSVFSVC

Key:
[1] = tested on: DSS induced ulcerative colitis and Crohn's disease in mice; test: In vivo pharmacodynamic study on DSS induced inflammatory bowel disease (IBD) in mice; design: species or system mice (C57BL/6); conditions: 15 mg/kg p.o.
Excerpt: Inflammatory bowl disease (IBD) is a kind of recurrent disease. It is difficult to cure, has a high recurrence rate, and has a poor prognosis, it has a certain correlation with the incidence of colon cancer. The development of drugs for the treatment of IBD will help alleviate the symptoms of ulcerative colitis and Crohn's disease and improve the quality of life of patients. The mouse inflammation model induced by dextran sulfate sodium (DSS) is similar to the human disease ulcerative colitis and Crohn's disease. It is a common classical model for preclinical evaluation of drug efficacy. […]
The adaptation period of the animals was 3 days. […] Every other day, the fecal viscosity was evaluated, feces were collected for fecal occult blood detection, and the disease activity index (DAI) score was calculated. DSS consumption was detected every day. […]
DAI is the sum of the scores of body weight, fecal viscosity and fecal occult blood. Among them, the semi quantitative detection method of piramine cave was adopted for detecting fecal occult blood, including adding piramine cave to the sample first, then adding hydrogen peroxide and ethanol solution, and reading and scoring the color within 2 min. […] After the experiment, the colon and spleen were taken, and the length of colon and the weight of spleen were measured. […]

[2] = tested on: DNCB induced allergic dermatitis in mice; test: In vivo pharmacodynamic study on DNCB induced allergic dermatitis (AD) in mice
[3] = target: TYK2 (Homo sapiens (Human), UniProt P29597); test: In vitro activity test of TYK2 kinase; assay type: biochemical
Procedure: Recombinant human JAK1, JAK2, JAK3, TyK2 protease, main instruments and reagents were provided by Eurofins in the UK
All compounds were prepared into a 100% DMSO solution and reached 50 times the final determined concentration. The test compound was diluted by 3 times the concentration gradient, and the final concentration was 10 μM to 0.001 μM, 9 concentrations in total, and the content of DMSO in the detection reaction was 2%. The working stock solution of the compound was added to a determination hole as the first component of the reaction, and then the remaining components were added according to the detailed scheme determination below.
Mg/ATP mixture was added to start the reaction. After incubation at room temperature for 40 minutes, 0.5% phosphoric acid was added to stop the reaction.

Row | SMILES | Colon shortening caused by DSS, compared with DSS group (in words) [1] | Effect on treating allergic dermatitis (in words) ([2]; 30 mg/kg p.o. qd, DNCB mice) | Concentration of IgE in serum after drug intervention (in words) ([2]; 30 mg/kg p.o., vs DNCB group) | Thickness of the right ear after drug intervention (in words) ([2]; 30 mg/kg p.o., vs DNCB group) | Skin score compared with DNCB group (in words) ([2]; day 27 of administration, 30 mg/kg p.o.) | IC50 [3] [µM]
1 | N#CC1(C(=O)N2CC3(CCC(c4cccc5nc(NC(=O)C6CC6)nn45)CC3)C2)CC1 [Compound 1-11] | can reduce colon shortening | good disease treatment effect; also recorded: significant effect | significantly decreased | significantly decreased | significant reduction | –
2 | O=C(Nc1nc2cccc(C3(F)CCC4(CC3)CN(C(=O)CC(F)F)C4)n2n1)C1CC1 [Compound 4-8] | – | – | – | – | – | > 10
